In patent US10441588B2, “Methods and compositions for treating bacterial infection” (Curators of the University of Missouri, priority 2012, dated 2019):
Values joined by “and” are separate entries in the source; they are usually repeats but may differ in a detail not shown here. Identical values can stand only once. Counter-ions that a name gives are not always drawn. The name of at least one read-out is uncertain.

Columns and labels:
S. epidermis biofilm = S. epidermis biofilm inhibition, optical density, test/control; details: growth of biofilm test/control by optical density, hydrochloride
S. aureus biofilm = S. aureus biofilm inhibition, optical density, test/control; assay type: cell-based, Staphylococcus aureus; details: growth of biofilm test/control by optical density, hydrochloride

SMILES | S. epidermis Biofilm inhibition 5 μM vs. (−) Control (S. epidermis biofilm) | S. aureus Biofilm Inhibition 5 μM vs. (−) Control (S. aureus biofilm) | S. aureus Biofilm Inhibition 50 μM vs. (−) Control (S. aureus biofilm)
C=CCn1c(SCCOC)nc2c(c1=O)C1(CCNCC1)Cc1cc(OC)ccc1-2 [CCG-206661, 3-allyl-8-methoxy-2-((2-methoxyethyl)thio)-3H-spiro[benzo[h]quinazoline-5,4′-piperidin]-4(6H)-one hydrochloride] | 1.068 | 0.985 | 0.262 and 0.269 and 0.312 and 0.468
C=CCn1c(SCC)nc2c(c1=O)C1(CCNCC1)Cc1cc(OC)ccc1-2 [CCG-206664, 3-allyl-2-(ethylthio)-8-methoxy-3H-spiro[benzo[h]quinazoline-5,4′-piperidin]-4(6H)-one hydrochloride] | 0.869 | 1.056 | 0.036 and 0.039 and 0.042
